Source: the supplement of paper PMC6078165
± gives the standard deviation of the averaged measurements. Values are relative to the signal before dosing, not to a vehicle control; the signal also falls without drug.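 The tumor cells are basal-like or mesenchymal-like triple-negative breast cancer lines cultured without fibroblasts. Reduced red signal indicates lost mitochondrial integrity, serving as a proxy for apoptotic death.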 Numbered stars: 1 amine (or outer) side, 2 acyl side, 3 side chain; on linkers, the order of the positions; unused ones are H or OH. Bridge positions count the residues as written; N and C are the ends. Square brackets hold non-standard residues; d marks the D form. Peptide text beside a SMILES is read from it. I, II: the chains in the order shown. Actinocin(9to1) = Cc1c2oc3c(C)ccc(C(=O)[*:1])c3nc-2c(C(=O)[*:2])c(N)c1=O; NMeV = CN[C@H](C(=O)O)C(C)C; Sar = CNCC(=O)O

Tests used:
MDAMB436 = test: relative JC-1 red fluorescence (viability) vs pre-drug, monoculture (fraction); higher = more viable cancer cells; conditions: coculture fibroblast: none (monoculture)
Procedure: (§1)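 JC-1 labelled TNBC cells grown in monoculture (density kept equal with unlabelled cancer cells) in 384-well plates in FluoroBrite medium, treated with one of 42 anticancer drugs at 0.1, 1, 10 or 100 uM. JC-1 red fluorescence (mitochondrial integrity, surrogate of apoptotic death) was read by plate reader every 8 h for 72 h. Values are normalised to each well's pre-drug value, with background from alamethicin. The stock of one drug was tenfold lower, so its dose labels may be too high. Monoculture values are repeated alongside each fibroblast plate and are averaged here.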

MDAMB231 = test: as above; conditions: coculture fibroblast: none (monoculture)
Procedure: as §1

Cc1c2oc3c(C)ccc(C(=O)N[C@@H]4C(=O)N[C@H](C(C)C)C(=O)N5CCC[C@H]5C(=O)N(C)CC(=O)N(C)[C@@H](C(C)C)C(=O)O[C@@H]4C)c3nc-2c(C(=O)N[C@@H]2C(=O)N[C@H](C(C)C)C(=O)N3CCC[C@H]3C(=O)N(C)CC(=O)N(C)[C@@H](C(C)C)C(=O)O[C@@H]2C)c(N)c1=O [Dactinomycin] (I: T[dV]P[Sar][NMeV] / II: T[dV]P[Sar][NMeV]; ester I:1-I:C, II:1-II:C; linker I:N-II:N via Actinocin(9to1))
relative JC-1 red fluorescence
Conditions | 8 h | 16 h | 24 h | 32 h | 40 h | 48 h | 56 h | 64 h | 72 h
MDAMB231, 0.1 µM | 0.765 ± 0.017 | 0.755 ± 0.032 | 0.857 ± 0.074 | 0.768 ± 0.043 | 0.741 ± 0.047 | 0.756 ± 0.046 | 0.765 ± 0.05 | 0.834 ± 0.058 | 0.856 ± 0.061
MDAMB231, 1 µM | 0.671 ± 0.039 | 0.612 ± 0.042 | 0.626 ± 0.011 | 0.601 ± 0.03 | 0.573 ± 0.032 | 0.576 ± 0.0088 | 0.569 ± 0.016 | 0.622 ± 0.04 | 0.636 ± 0.048
MDAMB231, 10 µM | 0.761 ± 0.035 | 0.721 ± 0.045 | 0.79 ± 0.037 | 0.763 ± 0.098 | 0.751 ± 0.13 | 0.77 ± 0.099 | 0.812 ± 0.12 | 0.804 ± 0.043 | 0.79373 ± 0.00078
MDAMB231, 100 µM | 0.667 ± 0.015 | 0.606 ± 0.0069 | 0.536 ± 0.031 | 0.518 ± 0.012 | 0.465 ± 0.023 | 0.428 ± 0.028 | 0.409 ± 0.039 | 0.426 ± 0.051 | 0.417 ± 0.047
MDAMB436, 0.1 µM | 0.847 ± 0.039 | 0.874 ± 0.018 | 0.947 ± 0.031 | 0.966 ± 0.034 | 0.871 ± 0.096 | 0.8551 ± 0.0039 | 0.749 ± 0.043 | 0.854 ± 0.057 | 0.922 ± 0.014
MDAMB436, 1 µM | 0.8182 ± 0.0053 | 0.783 ± 0.018 | 0.804 ± 0.029 | 0.769 ± 0.033 | 0.778 ± 0.045 | 0.79 ± 0.043 | 0.789 ± 0.05 | 0.8 ± 0.055 | 0.817 ± 0.065
MDAMB436, 10 µM | 0.7981 ± 0.0009 | 0.841 ± 0.033 | 0.879 ± 0.045 | 0.862 ± 0.053 | 0.89 ± 0.053 | 0.905 ± 0.056 | 0.925 ± 0.066 | 0.841 ± 0.041 | 0.806 ± 0.088
MDAMB436, 100 µM | 0.778 ± 0.027 | 0.7323 ± 0.0015 | 0.7241 ± 0.0053 | 0.67702 ± 0.00037 | 0.657 ± 0.016 | 0.66 ± 0.026 | 0.634 ± 0.031 | 0.635 ± 0.034 | 0.638 ± 0.038

C=C1C[C@@H]2[C@H](CC[C@]3(C)C(=O)CC[C@@H]23)[C@@]2(C)C=CC(=O)C=C12 [Exemestane]
relative JC-1 red fluorescence
Conditions | 8 h | 16 h | 24 h | 32 h | 40 h | 48 h | 56 h | 64 h | 72 h
MDAMB231, 0.1 µM | 0.7412 ± 0.0056 | 0.675 ± 0.026 | 0.672 ± 0.046 | 0.624 ± 0.018 | 0.59 ± 0.034 | 0.597 ± 0.043 | 0.568 ± 0.06 | 0.594 ± 0.075 | 0.594 ± 0.077
MDAMB231, 1 µM | 0.737 ± 0.021 | 0.726 ± 0.02 | 0.61 ± 0.026 | 0.607 ± 0.015 | 0.57 ± 0.017 | 0.55 ± 0.02 | 0.508 ± 0.019 | 0.52 ± 0.014 | 0.517 ± 0.01
MDAMB231, 10 µM | 0.7816 ± 0.0048 | 0.795 ± 0.021 | 0.784 ± 0.021 | 0.858 ± 0.07 | 0.871 ± 0.095 | 0.887 ± 0.094 | 0.865 ± 0.11 | 0.894 ± 0.1 | 0.887 ± 0.087
MDAMB231, 100 µM | 0.801 ± 0.032 | 0.819 ± 0.036 | 0.763 ± 0.063 | 0.768 ± 0.076 | 0.757 ± 0.097 | 0.764 ± 0.13 | 0.734 ± 0.14 | 0.745 ± 0.15 | 0.752 ± 0.14
MDAMB436, 0.1 µM | 0.871 ± 0.016 | 0.818 ± 0.015 | 0.8025 ± 0.0072 | 0.7566 ± 0.0063 | 0.774 ± 0.0097 | 0.7849 ± 0.0049 | 0.8029 ± 0.0031 | 0.8085 ± 0.0046 | 0.8193 ± 0.0052
MDAMB436, 1 µM | 0.8513 ± 0.0024 | 0.784 ± 0.03 | 0.773 ± 0.034 | 0.719 ± 0.025 | 0.69 ± 0.019 | 0.679 ± 0.011 | 0.672 ± 0.011 | 0.673 ± 0.013 | 0.67 ± 0.015
MDAMB436, 10 µM | 0.871 ± 0.018 | 0.817 ± 0.015 | 0.8331 ± 0.0052 | 0.791 ± 0.015 | 0.797 ± 0.012 | 0.801 ± 0.016 | 0.81 ± 0.018 | 0.818 ± 0.026 | 0.824 ± 0.025
MDAMB436, 100 µM | 0.8607 ± 0.00088 | 0.7877 ± 0.0034 | 0.825 ± 0.018 | 0.779 ± 0.027 | 0.777 ± 0.039 | 0.77 ± 0.029 | 0.753 ± 0.025 | 0.732 ± 0.028 | 0.719 ± 0.016

O=C(O)C(=O)O.[NH-][C@@H]1CCCC[C@H]1[NH-].[Pt+2] [Oxaliplatin]
relative JC-1 red fluorescence
Conditions | 8 h | 16 h | 24 h | 32 h | 40 h | 48 h | 56 h | 64 h | 72 h
MDAMB231, 0.1 µM | 0.7317 ± 0.0031 | 0.676 ± 0.028 | 0.841 ± 0.018 | 0.703 ± 0.015 | 0.683 ± 0.011 | 0.711 ± 0.0016 | 0.7095 ± 0.00072 | 0.772 ± 0.0021 | 0.7821 ± 0.0031
MDAMB231, 1 µM | 0.738 ± 0.037 | 0.742 ± 0.026 | 0.609 ± 0.06 | 0.619 ± 0.054 | 0.581 ± 0.069 | 0.561 ± 0.071 | 0.526 ± 0.093 | 0.534 ± 0.095 | 0.533 ± 0.094
MDAMB231, 10 µM | 0.8497 ± 0.0076 | 0.69791 ± 0.00036 | 0.87752 ± 6.1e-06 | 0.7403 ± 0.003 | 0.72 ± 0.009 | 0.74 ± 0.0096 | 0.738 ± 0.0081 | 0.803 ± 0.01 | 0.815 ± 0.02
MDAMB231, 100 µM | 0.753 ± 0.035 | 0.749 ± 0.028 | 0.624 ± 0.073 | 0.628 ± 0.039 | 0.594 ± 0.05 | 0.563 ± 0.051 | 0.529 ± 0.059 | 0.534 ± 0.062 | 0.533 ± 0.068
MDAMB436, 0.1 µM | 0.8892 ± 0.00094 | 0.9284 ± 0.0088 | 0.9119 ± 0.0033 | 0.739 ± 0.032 | 0.811 ± 0.049 | 0.838 ± 0.081 | 0.829 ± 0.02 | 0.831 ± 0.043 | 0.776 ± 0.038
MDAMB436, 1 µM | 0.843 ± 0.0019 | 0.7776 ± 0.002 | 0.706 ± 0.012 | 0.643 ± 0.0045 | 0.611 ± 0.014 | 0.597 ± 0.013 | 0.588 ± 0.016 | 0.577 ± 0.017 | 0.574 ± 0.018
MDAMB436, 10 µM | 0.89 ± 0.016 | 0.777 ± 0.023 | 0.767 ± 0.011 | 0.71 ± 0.008 | 0.69561 ± 0.0006 | 0.6987 ± 0.003 | 0.7053 ± 0.0035 | 0.707 ± 0.008 | 0.72 ± 0.0096
MDAMB436, 100 µM | 0.876 ± 0.0034 | 0.832 ± 0.018 | 0.773 ± 0.019 | 0.723 ± 0.024 | 0.699 ± 0.028 | 0.677 ± 0.036 | 0.657 ± 0.031 | 0.656 ± 0.039 | 0.645 ± 0.045
